Source: patent US20240065997A1, “Methods and Compositions for Improving Insulin Production and Secretion” (ABBOTT LABORATORIES, priority 2021, published 2024)
For at least one compound, name, drawing or mass did not settle the structure.

Test system: INS-1 cells
Assay: MTT cell viability assay in palmitate-treated INS-1 cells
Assay type: cell-based, rat
Conditions: palmitate 250 μM 24 hours, effectors added 3 hours before (arginine 5 mM, lysine 10 mM, HMB 25 μM), FIG. 6

Compound: CCCCCCCCCCCCCCCC(=O)O [palmitate, reference compound]
- cell viability at 24 hours (in words): negatively affected
